Assay results taken from the supplement of paper PMC10849652.
Some of the results follow.

By UniProt entry, the sequences of proteins in these tests, tags left out. Where a name states a change or a piece, a line headed by the entry shows the natural chain unless it says otherwise.
UniProt Q9NPA8: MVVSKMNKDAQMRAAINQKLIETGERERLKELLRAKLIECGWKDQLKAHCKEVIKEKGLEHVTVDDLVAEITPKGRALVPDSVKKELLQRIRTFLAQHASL
UniProt O75356: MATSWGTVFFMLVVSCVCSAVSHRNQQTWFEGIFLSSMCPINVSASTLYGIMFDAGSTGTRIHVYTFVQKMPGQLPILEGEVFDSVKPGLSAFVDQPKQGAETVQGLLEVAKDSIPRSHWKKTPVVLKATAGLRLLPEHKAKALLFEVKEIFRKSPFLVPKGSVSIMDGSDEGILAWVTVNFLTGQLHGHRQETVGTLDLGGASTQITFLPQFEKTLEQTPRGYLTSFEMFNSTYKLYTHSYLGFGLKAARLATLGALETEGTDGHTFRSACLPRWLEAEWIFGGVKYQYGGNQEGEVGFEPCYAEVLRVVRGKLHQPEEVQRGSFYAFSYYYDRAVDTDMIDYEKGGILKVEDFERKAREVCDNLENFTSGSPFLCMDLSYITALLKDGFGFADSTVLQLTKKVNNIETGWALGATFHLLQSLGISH
UniProt Q9NPA0: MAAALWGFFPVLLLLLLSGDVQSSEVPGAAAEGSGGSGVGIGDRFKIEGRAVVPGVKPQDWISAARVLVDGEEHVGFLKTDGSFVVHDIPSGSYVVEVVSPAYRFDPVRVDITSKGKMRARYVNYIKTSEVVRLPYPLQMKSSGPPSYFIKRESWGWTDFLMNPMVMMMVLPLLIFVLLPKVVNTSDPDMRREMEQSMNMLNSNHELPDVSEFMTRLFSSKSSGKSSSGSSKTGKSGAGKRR
UniProt Q14232, whole entry, looked up: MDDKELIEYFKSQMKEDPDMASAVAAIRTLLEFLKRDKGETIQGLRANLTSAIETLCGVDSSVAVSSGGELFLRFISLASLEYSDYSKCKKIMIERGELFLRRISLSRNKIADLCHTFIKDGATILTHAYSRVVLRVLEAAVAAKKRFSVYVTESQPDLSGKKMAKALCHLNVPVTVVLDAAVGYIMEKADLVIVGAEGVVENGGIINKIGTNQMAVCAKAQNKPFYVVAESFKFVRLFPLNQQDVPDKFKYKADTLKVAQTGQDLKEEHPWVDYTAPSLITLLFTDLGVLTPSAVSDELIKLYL
UniProt Q9BY44: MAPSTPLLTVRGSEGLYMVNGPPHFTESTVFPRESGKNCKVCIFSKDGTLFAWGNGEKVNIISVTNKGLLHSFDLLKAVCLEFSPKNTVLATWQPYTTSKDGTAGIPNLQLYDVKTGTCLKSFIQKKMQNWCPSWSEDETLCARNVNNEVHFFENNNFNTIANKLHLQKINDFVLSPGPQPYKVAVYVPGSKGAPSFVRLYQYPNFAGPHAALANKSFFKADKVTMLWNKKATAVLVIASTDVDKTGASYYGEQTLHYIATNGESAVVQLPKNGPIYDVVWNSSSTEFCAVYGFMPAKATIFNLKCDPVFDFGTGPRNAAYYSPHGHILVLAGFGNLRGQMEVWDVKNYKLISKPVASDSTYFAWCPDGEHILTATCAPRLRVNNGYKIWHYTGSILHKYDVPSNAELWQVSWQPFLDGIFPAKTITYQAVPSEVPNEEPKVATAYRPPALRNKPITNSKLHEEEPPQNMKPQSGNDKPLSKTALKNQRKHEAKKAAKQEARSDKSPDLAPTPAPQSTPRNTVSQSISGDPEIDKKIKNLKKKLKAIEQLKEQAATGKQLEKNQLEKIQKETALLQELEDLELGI
UniProt P55010, whole entry, looked up: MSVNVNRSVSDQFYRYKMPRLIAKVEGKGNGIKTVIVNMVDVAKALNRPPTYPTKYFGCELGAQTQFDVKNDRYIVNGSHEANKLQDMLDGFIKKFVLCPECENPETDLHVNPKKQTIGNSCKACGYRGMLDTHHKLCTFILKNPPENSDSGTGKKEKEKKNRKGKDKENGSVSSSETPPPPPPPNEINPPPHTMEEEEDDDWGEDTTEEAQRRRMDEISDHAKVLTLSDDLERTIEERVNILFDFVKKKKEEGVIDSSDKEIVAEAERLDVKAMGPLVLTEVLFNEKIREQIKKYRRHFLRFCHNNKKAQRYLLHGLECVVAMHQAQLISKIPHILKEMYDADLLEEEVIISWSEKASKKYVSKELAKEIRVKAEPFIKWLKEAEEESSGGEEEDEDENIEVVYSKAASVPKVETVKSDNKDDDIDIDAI
UniProt P05198, whole entry, looked up: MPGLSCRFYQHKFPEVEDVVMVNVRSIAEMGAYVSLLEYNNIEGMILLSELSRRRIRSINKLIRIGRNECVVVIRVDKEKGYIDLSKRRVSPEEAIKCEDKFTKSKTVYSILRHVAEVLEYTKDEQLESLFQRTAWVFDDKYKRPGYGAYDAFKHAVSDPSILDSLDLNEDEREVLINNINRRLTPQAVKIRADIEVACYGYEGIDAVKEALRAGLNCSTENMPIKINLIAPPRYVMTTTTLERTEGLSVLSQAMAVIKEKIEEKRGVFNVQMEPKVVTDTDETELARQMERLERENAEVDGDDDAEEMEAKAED
UniProt Q0PNE2: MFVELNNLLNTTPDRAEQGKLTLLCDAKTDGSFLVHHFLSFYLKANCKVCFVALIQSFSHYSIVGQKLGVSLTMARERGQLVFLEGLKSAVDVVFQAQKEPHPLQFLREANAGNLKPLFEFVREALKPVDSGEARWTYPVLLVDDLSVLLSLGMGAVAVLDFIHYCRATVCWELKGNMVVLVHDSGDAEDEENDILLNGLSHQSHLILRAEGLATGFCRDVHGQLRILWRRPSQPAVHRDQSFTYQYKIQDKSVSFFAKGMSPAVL
UniProt Q96KQ7: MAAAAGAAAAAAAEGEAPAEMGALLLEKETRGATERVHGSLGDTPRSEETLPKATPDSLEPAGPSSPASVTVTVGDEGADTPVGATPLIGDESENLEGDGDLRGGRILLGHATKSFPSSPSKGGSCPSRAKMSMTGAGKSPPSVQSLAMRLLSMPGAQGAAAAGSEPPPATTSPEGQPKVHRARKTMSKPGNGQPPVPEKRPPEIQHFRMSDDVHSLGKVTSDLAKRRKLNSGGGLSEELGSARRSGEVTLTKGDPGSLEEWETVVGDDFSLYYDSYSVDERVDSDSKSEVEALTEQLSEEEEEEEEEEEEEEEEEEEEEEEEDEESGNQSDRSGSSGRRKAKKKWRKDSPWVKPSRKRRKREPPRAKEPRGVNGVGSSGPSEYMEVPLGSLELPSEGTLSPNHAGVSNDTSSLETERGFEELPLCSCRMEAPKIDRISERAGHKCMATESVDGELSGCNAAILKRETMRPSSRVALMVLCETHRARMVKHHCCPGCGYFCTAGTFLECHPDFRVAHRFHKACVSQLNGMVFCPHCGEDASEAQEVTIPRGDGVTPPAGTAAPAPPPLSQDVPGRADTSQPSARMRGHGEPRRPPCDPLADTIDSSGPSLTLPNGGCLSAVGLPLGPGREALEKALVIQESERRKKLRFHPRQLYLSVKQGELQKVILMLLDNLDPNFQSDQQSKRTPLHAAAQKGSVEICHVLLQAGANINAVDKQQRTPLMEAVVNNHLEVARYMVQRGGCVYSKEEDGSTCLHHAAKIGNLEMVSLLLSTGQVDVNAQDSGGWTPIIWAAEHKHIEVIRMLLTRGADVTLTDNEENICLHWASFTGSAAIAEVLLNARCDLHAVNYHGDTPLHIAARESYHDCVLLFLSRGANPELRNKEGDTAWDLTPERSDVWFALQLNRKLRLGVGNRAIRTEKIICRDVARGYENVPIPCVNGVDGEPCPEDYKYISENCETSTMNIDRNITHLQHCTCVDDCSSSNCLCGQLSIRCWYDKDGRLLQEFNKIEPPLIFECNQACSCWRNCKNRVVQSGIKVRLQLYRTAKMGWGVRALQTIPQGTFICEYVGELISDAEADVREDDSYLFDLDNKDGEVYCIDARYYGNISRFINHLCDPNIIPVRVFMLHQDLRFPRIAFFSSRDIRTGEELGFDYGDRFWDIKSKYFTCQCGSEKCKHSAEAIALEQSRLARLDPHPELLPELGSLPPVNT
UniProt O15372, whole entry, looked up: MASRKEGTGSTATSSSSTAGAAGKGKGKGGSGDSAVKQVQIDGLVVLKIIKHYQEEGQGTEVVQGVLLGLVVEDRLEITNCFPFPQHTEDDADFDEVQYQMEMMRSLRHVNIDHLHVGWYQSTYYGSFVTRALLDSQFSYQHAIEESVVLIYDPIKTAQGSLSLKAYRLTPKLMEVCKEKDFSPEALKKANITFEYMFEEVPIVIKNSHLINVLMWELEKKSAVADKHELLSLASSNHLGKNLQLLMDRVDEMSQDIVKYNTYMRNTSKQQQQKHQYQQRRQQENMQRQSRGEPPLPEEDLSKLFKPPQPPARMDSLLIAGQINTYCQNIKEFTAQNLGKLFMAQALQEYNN
UniProt P06733, whole entry, looked up: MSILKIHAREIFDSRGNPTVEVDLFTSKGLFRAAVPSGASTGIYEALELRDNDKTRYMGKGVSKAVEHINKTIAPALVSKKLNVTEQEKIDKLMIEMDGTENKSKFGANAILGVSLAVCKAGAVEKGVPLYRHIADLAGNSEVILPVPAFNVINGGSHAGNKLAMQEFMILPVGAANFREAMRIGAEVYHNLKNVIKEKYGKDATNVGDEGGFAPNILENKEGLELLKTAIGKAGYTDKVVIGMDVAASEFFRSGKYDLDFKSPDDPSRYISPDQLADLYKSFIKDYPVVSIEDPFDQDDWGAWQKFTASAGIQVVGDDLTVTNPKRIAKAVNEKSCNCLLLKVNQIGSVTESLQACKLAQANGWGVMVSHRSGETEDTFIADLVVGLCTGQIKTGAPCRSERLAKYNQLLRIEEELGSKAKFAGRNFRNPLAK
UniProt Q53HC9: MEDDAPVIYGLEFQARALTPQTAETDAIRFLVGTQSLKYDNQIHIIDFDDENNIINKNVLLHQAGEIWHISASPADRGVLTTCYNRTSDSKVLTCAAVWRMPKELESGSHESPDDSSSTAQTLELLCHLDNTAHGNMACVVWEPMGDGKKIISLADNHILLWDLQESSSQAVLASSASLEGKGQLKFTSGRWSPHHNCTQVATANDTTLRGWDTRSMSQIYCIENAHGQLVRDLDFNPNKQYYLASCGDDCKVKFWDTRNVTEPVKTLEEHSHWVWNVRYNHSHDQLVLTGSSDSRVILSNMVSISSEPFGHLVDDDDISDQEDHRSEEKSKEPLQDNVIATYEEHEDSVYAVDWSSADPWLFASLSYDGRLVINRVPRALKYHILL
UniProt Q5UCC4: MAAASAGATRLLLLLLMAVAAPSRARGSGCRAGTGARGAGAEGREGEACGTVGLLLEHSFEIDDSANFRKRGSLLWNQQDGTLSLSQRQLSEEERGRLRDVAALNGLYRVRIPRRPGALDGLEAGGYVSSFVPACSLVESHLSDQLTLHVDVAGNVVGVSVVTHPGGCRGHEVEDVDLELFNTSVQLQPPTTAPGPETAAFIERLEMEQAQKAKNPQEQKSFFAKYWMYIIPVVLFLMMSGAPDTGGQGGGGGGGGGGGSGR
UniProt Q13541: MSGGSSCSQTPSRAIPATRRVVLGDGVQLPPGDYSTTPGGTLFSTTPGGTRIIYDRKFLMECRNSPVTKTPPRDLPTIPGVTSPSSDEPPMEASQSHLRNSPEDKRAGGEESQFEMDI

Tests used:
Experiment in all cases: log2 fold change, soluble protein after heating vs DMSO (PISA); higher = thermal stabilisation; K562 cells, 10 uM, 30 min; active = over 0.2 and 3.5 SD of the protein, either way, in both replicates (recomputed)
[1] = compound: CN1CCN(CCOc2cc(OC3CCOCC3)c3c(Nc4c(Cl)ccc5c4OCO5)ncnc3c2)CC1 [saracatinib]
Method in brief: (§1)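 Values are thermal stability changes relative to control samples and are taken from duplicates. They are stated as log2 fold changes. Before quantification by TMTpro 16plex LC-MS/MS with equalised channel sums, K562 cells at 2×10^6 cells/mL were treated with 10 μM compound for 30 min, heated in aliquots for 3 min across 48°C-58°C, pooled, extracted in PBS with 0.5% NP-40 at 4°C, and centrifuged at 21,000xg for 90 min to give the soluble supernatant.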

[2] = compound: CN1CCN(c2nc(C3=C(c4c[nH]c5ccccc45)C(=O)NC3=O)c3ccccc3n2)CC1 [sotrastaurin]
Method in brief: as §1

[3] = compound: CN1CC[C@H](c2c(O)cc(O)c3c(=O)cc(-c4ccccc4Cl)oc23)[C@H](O)C1 [alvocidib]
Method in brief: as §1

[4] = compound: CN1CCc2c(c3ccccc3n2Cc2ccc(C(=O)NO)cc2)C1 [Tubastatin A]
Method in brief: as §1

[5] = compound: CNC(=O)C1=CC=CC=C1NC2=NC(=NC=C2Cl)NC3=C(C=C(C=C3)N4CCOCC4)OC
Method in brief: as §1

[6] = compound: CNC(=O)c1ccc(Nc2ncc(C(F)(F)F)c(NCc3nccnc3N(C)S(C)(=O)=O)n2)cc1 [defactinib]
Method in brief: as §1

[7] = compound: CNCc1ccc(-c2[nH]c3cc(F)cc4c3c2CCNC4=O)cc1 [rucaparib]
Method in brief: as §1

[8] = compound: CNc1nc(-c2ccc3c(N)n[nH]c3c2)cc(N2C[C@@H](C(=O)NC3CCCCC3)CC[C@H]2C)n1
Method in brief: as §1

[9] = compound: COC(=O)N[C@@H](C)CNc1nccc(-c2cn(C(C)C)nc2-c2cc(Cl)cc(NS(C)(=O)=O)c2F)n1 [encorafenib]
Method in brief: as §1

[10] = compound: COC(=O)[C@H](CCSC)NC(=O)C1=C(C=C(C=C1)NC[C@H](CS)N)C2=CC=CC=C2
Method in brief: as §1

[11] = compound: COC1=CC=C(C=C1)CN2C=CC3=C2C=C(C=C3)C(=O)NO
Method in brief: as §1

[12] = compound: CON(C)C(=O)N1N=C(c2cc(F)ccc2F)S[C@@]1(CCCN)c1ccccc1 [filanesib]
Method in brief: as §1

[13] = compound: CO[C@H]1C[C@@H]2CC[C@@H](C)[C@@](O)(O2)C(=O)C(=O)N2CCCC[C@H]2C(=O)O[C@H]([C@H](C)C[C@@H]2CC[C@H](n3cnnn3)[C@H](OC)C2)CC(=O)[C@H](C)/C=C(\C)[C@@H](O)[C@@H](OC)C(=O)[C@H](C)C[C@H](C)/C=C/C=C/C=C/1C [zotarolimus]
Method in brief: as §1

[14] = compound: COc1cc(C(=O)O)ccc1NC(=O)[C@@H]1N[C@@H](CC(C)(C)C)[C@](C#N)(c2ccc(Cl)cc2F)[C@H]1c1cccc(Cl)c1F [idasanutlin]
Method in brief: as §1

[15] = compound: COc1cc(Nc2ncc3c(n2)-c2ccc(Cl)cc2C(c2c(F)cccc2OC)=NC3)ccc1C(=O)O [alisertib]
Method in brief: as §1

[16] = compound: COc1cc2nc(-c3cc(F)ccc3O)nc(N[C@@H]3CNC[C@H]3C(C)(C)O)c2cc1OC
Method in brief: as §1

[17] = compound: COc1cc2ncnc(Nc3ccc(F)c(Cl)c3)c2cc1OCCCN1CCOCC1 [gefitinib]
Method in brief: as §1

[18] = compound: COc1cccc2cc(-c3nc([C@H]4CC[C@H](C(=O)O)CC4)n4ncnc(N)c34)[nH]c12
Method in brief: as §1

[19] = compound: CS(=O)(=O)CCNCc1ccc(-c2ccc3ncnc(Nc4ccc(OCc5cccc(F)c5)c(Cl)c4)c3c2)o1 [lapatinib]
Method in brief: as §1

[20] = compound: CS(=O)(=O)N1CCN(Cc2cc3nc(-c4cccc5[nH]ncc45)nc(N4CCOCC4)c3s2)CC1 [pictilisib]
Method in brief: as §1

Measured: log2 fold change

ENY2 (UniProt Q9NPA8)
inactive: [1] 0 | [2] -0.004 | [3] -0.037 | [4] -0.01 | [5] -0.017 | [6] 0.012 | [7] -0.034 | [8] -0.025 | [9] -0.074 | [10] -0.019 | [11] -0.025 | [12] -0.005 | [13] 0.023 | [14] -0.063 | [15] -0.017 | [16] -0.036 | [17] 0.003 | [18] -0.001 | [19] 0.015 | [20] 0.009

ENTPD5 (UniProt O75356)
inactive: [1] -0.005 | [2] 0.032 | [3] -0.287 | [4] -0.082 | [5] 0.015 | [6] -0.046 | [7] -0.038 | [8] 0.043 | [9] 0.043 | [10] 0.019 | [11] -0.081 | [12] 0.039 | [13] 0.197 | [14] -0.02 | [15] -0.022 | [16] 0.009 | [17] 0.078 | [18] -0.063 | [19] 0.033

EMC7 (UniProt Q9NPA0)
inactive: [1] -0.027 | [2] 0.033 | [3] -0.011 | [4] -0.014 | [5] -0.016 | [6] 0.02 | [7] -0.059 | [8] 0.006 | [9] 0.024 | [10] -0.007 | [11] -0.097 | [12] -0.01 | [13] -0.033 | [14] -0.015 | [15] -0.03 | [16] 0.044 | [17] 0.013 | [18] 0.02 | [19] -0.031 | [20] 0.04

EIF2B1 (UniProt Q14232)
inactive: [1] 0.026 | [2] 0.016 | [3] -0.028 | [4] -0.02 | [5] 0.014 | [6] 0.002 | [7] 0.003 | [8] 0.002 | [9] -0.002 | [10] 0.002 | [11] 0.069 | [12] -0.068 | [13] 0.023 | [14] -0.016 | [15] -0.147 | [16] -0.015 | [17] -0.031 | [18] -0.018 | [19] -0.006 | [20] 0.03

EIF2A (UniProt Q9BY44)
inactive: [1] -0.032 | [2] -0.029 | [3] 0.074 | [4] 0.024 | [5] 0.045 | [6] 0.08 | [7] 0.09 | [8] 0.018 | [9] 0.033 | [10] 0.022 | [11] 0.052 | [12] 0.041 | [13] 0.013 | [14] 0.026 | [15] -0.071 | [16] 0.007 | [17] -0.016 | [18] -0.137 | [19] 0.055 | [20] -0.059

EIF5 (UniProt P55010)
inactive: [1] 0.014 | [2] -0.009 | [3] -0.118 | [4] -0.013 | [5] 0.039 | [6] -0.08 | [7] -0.035 | [8] -0.019 | [9] 0.046 | [10] -0.044 | [11] -0.021 | [12] -0.032 | [13] 0.039 | [14] -0.035 | [15] 0.003 | [16] 0.027 | [17] 0.028 | [18] 0.004 | [19] -0.026 | [20] 0.011

EIF2S1 (UniProt P05198)
inactive: [1] -0.024 | [2] 0.044 | [3] 0.061 | [4] 0.001 | [5] -0.022 | [6] 0.103 | [7] 0.112 | [8] 0.012 | [9] 0.032 | [10] 0.02 | [11] -0.025 | [12] 0.145 | [13] 0.009 | [14] 0.035 | [15] -0.079 | [16] 0.06 | [17] -0.024 | [18] -0.093 | [19] -0.023 | [20] -0.049

ELP6 (UniProt Q0PNE2)
inactive: [1] 0.046 | [2] 0.021 | [3] 0.011 | [4] -0.008 | [5] 0.009 | [6] -0.059 | [7] -0.011 | [8] 0.028 | [9] -0.005 | [10] -0.023 | [11] -0.052 | [12] 0.007 | [13] -0.013 | [14] -0.052 | [15] -0.056 | [16] 0.019 | [17] -0.002 | [18] 0.051 | [19] 0.038 | [20] 0.043

EHMT2 (UniProt Q96KQ7)
inactive: [1] 0.01 | [2] -0.03 | [3] -0.181 | [4] 0.06 | [5] -0.03 | [6] -0.092 | [7] 0.188 | [8] -0.048 | [9] -0.006 | [10] 0.056 | [11] 0.013 | [12] 0.141 | [13] 0.125 | [14] 0.125 | [15] -0.158 | [16] -0.153 | [17] -0.017 | [18] -0.04 | [19] -0.009 | [20] -0.022

EIF3H (UniProt O15372)
inactive: [1] -0.027 | [2] -0.063 | [3] 0.005 | [4] 0.014 | [5] 0.01 | [6] -0.018 | [7] 0.078 | [8] -0.014 | [9] 0.061 | [10] -0.062 | [11] -0.003 | [12] 0.038 | [13] -0.049 | [14] 0.02 | [15] -0.033 | [16] 0.012 | [17] 0.017 | [18] -0.06 | [19] -0.005 | [20] -0.053

2 neighbouring entries out of the list so far, quoted:
ELP6 (UniProt Q0PNE2)
inactive: [1] 0.046 | [2] 0.021 | [3] 0.011 | [4] -0.008 | [5] 0.009 | [6] -0.059 | [7] -0.011 | [8] 0.028 | [9] -0.005 | [10] -0.023 | [11] -0.052 | [12] 0.007 | [13] -0.013 | [14] -0.052 | [15] -0.056 | [16] 0.019 | [17] -0.002 | [18] 0.051 | [19] 0.038 | [20] 0.043

EHMT2 (UniProt Q96KQ7)
inactive: [1] 0.01 | [2] -0.03 | [3] -0.181 | [4] 0.06 | [5] -0.03 | [6] -0.092 | [7] 0.188 | [8] -0.048 | [9] -0.006 | [10] 0.056 | [11] 0.013 | [12] 0.141 | [13] 0.125 | [14] 0.125 | [15] -0.158 | [16] -0.153 | [17] -0.017 | [18] -0.04 | [19] -0.009 | [20] -0.022

(listing goes on)

ENO1 (UniProt P06733)
inactive: [1] 0.021 | [2] 0.051 | [3] -0.019 | [4] -0.008 | [5] -0.031 | [6] 0.003 | [7] -0.051 | [8] -0.013 | [9] -0.033 | [10] 0.029 | [11] -0.027 | [12] -0.044 | [13] -0.028 | [14] -0.014 | [15] -0.006 | [16] 0.056 | [17] 0.017 | [18] 0.055 | [19] -0.03 | [20] 0.013

EIPR1 (UniProt Q53HC9)
inactive: [1] 0.045 | [2] -0.015 | [3] -0.036 | [4] -0.025 | [5] 0.022 | [6] -0.044 | [7] -0.052 | [8] -0.031 | [9] -0.024 | [10] 0.014 | [11] 0.005 | [12] -0.044 | [13] 0.015 | [14] -0.021 | [15] -0.004 | [16] 0.032 | [17] 0.096 | [18] 0.039 | [19] 0.007 | [20] 0.039

ELOF1 (UniProt P60002)
inactive: [1] 0.094 | [2] -0.022 | [3] 0.06 | [4] 0.012 | [5] 0.021 | [6] 0.225 | [7] 0.12 | [8] -0.123 | [9] -0.036 | [10] -0.031 | [11] 0.169 | [12] -0.021 | [13] 0.018 | [14] -0.009 | [15] 0.108 | [16] -0.007 | [17] -0.039 | [18] -0.147 | [19] 0.014 | [20] -0.276

EMC10 (UniProt Q5UCC4)
inactive: [1] 0.013 | [2] 0.005 | [3] -0.057 | [4] 0.012 | [5] -0.008 | [6] -0.043 | [7] -0.012 | [8] -0.041 | [9] -0.106 | [10] -0.04 | [11] -0.052 | [12] -0.034 | [13] 0.023 | [14] -0.025 | [15] -0.135 | [16] 0.033 | [17] 0.048 | [18] 0.063 | [19] 0 | [20] -0.008

EI24 (UniProt O14681)
inactive: [1] 0.064 | [2] 0.056 | [3] -0.016 | [4] -0.086 | [5] -0.1 | [6] -0.072 | [7] 0.042 | [8] -0.063 | [9] 0.041 | [10] 0.055 | [11] 0.123 | [12] -0.175 | [13] -0.079 | [14] -0.117 | [15] -0.077 | [16] -0.051 | [17] -0.031 | [18] 0.096 | [19] -0.056 | [20] -0.058

EIF4EBP1 (UniProt Q13541)
inactive: [1] 0.002 | [2] 0.101 | [3] -0.081 | [4] 0.114 | [5] -0.065 | [6] 0.008 | [7] 0.014 | [8] -0.017 | [9] -0.057 | [10] -0.03 | [11] -0.062 | [12] 0.053 | [13] -0.047 | [14] 0.012 | [15] -0.105 | [16] -0.048 | [17] 0.006 | [18] 0.119 | [19] -0.192 | [20] -0.085
